# Test results: the supplement of paper PMC8728848
# The other results are listed elsewhere or left out.
# What was measured:
# Assay in all cases: glycan array binding signal (z-score within array); higher = stronger binding
# Details in all cases: glycan notation: IUPAC condensed, linker removed
# [1] = target: Neu5Ac(a2-6)GlcNAc(b1-4)GlcNAc(b1-4)GlcNAc
# Method in brief: (§1)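 The Consortium for Functional Glycomics database supplied 3228 glycan arrays, of which those lacking an available protein sequence were dropped. The binding signal, a within-array Z-score, was averaged across arrays of the same protein sequence and across linkers. Negative scores can be read as non-binding.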
# Neu5Ac(a2-8)Neu5Ac = target: Neu5Ac(a2-8)Neu5Ac
# Method in brief: as §1
# [2] = target: Neu5Ac(a2-8)Neu5Ac(a2-3)Gal(b1-3)GalNAc(b1-4)[Neu5Ac(a2-3)]Gal(b1-4)Glc
# Method in brief: as §1
# [3] = target: Neu5Ac(a2-8)Neu5Ac(a2-3)Gal(b1-3)GalNAc(b1-4)[Neu5Ac(a2-8)Neu5Ac(a2-3)]Gal(b1-4)Glc
# Method in brief: as §1
# [4] = target: Neu5Ac(a2-8)Neu5Ac(a2-3)Gal(b1-4)Glc
# Method in brief: as §1
# [5] = target: Neu5Ac(a2-8)Neu5Ac(a2-3)Gal(b1-4)GlcNAc
# Method in brief: as §1
# [6] = target: Neu5Ac(a2-8)Neu5Ac(a2-3)[Gal(b1-3)GalNAc(b1-4)]Gal(b1-4)Glc
# Method in brief: as §1
# [7] = target: Neu5Ac(a2-8)Neu5Ac(a2-3)[GalNAc(b1-4)]Gal(b1-4)Glc
# Method in brief: as §1
# [8] = target: Neu5Ac(a2-8)Neu5Ac(a2-8)Neu5Ac
# Method in brief: as §1
# [9] = target: Neu5Ac(a2-8)Neu5Ac(a2-8)Neu5Ac(a2-3)Gal(b1-4)Glc
# Method in brief: as §1
# [10] = target: Neu5Ac(a2-8)Neu5Ac(a2-8)Neu5Ac(a2-3)[Gal(b1-3)GalNAc(b1-4)]Gal(b1-4)Glc
# Method in brief: as §1
# [11] = target: Neu5Ac(a2-8)Neu5Ac(a2-8)Neu5Ac(a2-3)[GalNAc(b1-4)]Gal(b1-4)Glc
# Method in brief: as §1
# [12] = target: Neu5Ac(a2-8)Neu5Ac(a2-8)Neu5Ac(a2-8)Neu5Ac(a2-3)[GalNAc(b1-4)]Gal(b1-4)Glc
# Method in brief: as §1
# [13] = target: Neu5Ac(a2-8)Neu5Gc(a2-3)Gal(b1-4)GlcNAc
# Method in brief: as §1
# [14] = target: Neu5Ac(b2-6)Gal(b1-4)GlcNAc
# Method in brief: as §1
# Neu5Ac(b2-6)GalNAc = target: Neu5Ac(b2-6)GalNAc
# Method in brief: as §1
# [15] = target: Neu5Ac9Ac(a2-3)Gal(b1-3)GlcNAc
# Method in brief: as §1
# [16] = target: Neu5Ac9Ac(a2-3)Gal(b1-4)GlcNAc
# Method in brief: as §1
# [17] = target: Neu5Ac9Ac(a2-6)Gal(b1-4)GlcNAc
# Method in brief: as §1
# [18] = target: Neu5Gc(a2-3)Gal(b1-3)GlcNAc
# Method in brief: as §1
# [19] = target: Neu5Gc(a2-3)Gal(b1-3)[Fuc(a1-4)]GlcNAc
# Method in brief: as §1
# Neu5Gc(a2-3)Gal(b1-4)Glc = target: Neu5Gc(a2-3)Gal(b1-4)Glc
# Method in brief: as §1
# [20] = target: Neu5Gc(a2-3)Gal(b1-4)GlcNAc
# Method in brief: as §1
# [21] = target: Neu5Gc(a2-3)Gal(b1-4)GlcNAc(b1-3)Gal(b1-4)GlcNAc(b1-2)Man(a1-3)[Neu5Gc(a2-3)Gal(b1-4)GlcNAc(b1-3)Gal(b1-4)GlcNAc(b1-2)Man(a1-6)]Man(b1-4)GlcNAc(b1-4)GlcNAc
# Method in brief: as §1
# [22] = target: Neu5Gc(a2-3)Gal(b1-4)[Fuc(a1-3)]GlcNAc
# Method in brief: as §1
# [23] = target: Neu5Gc(a2-6)Gal(b1-4)GlcNAc
# Method in brief: as §1
# Neu5Gc(a2-6)GalNAc = target: Neu5Gc(a2-6)GalNAc
# Method in brief: as §1
# [24] = target: Neu5Gc(a2-8)Neu5Ac(a2-3)Gal(b1-4)GlcNAc
# Method in brief: as §1
# [25] = target: Neu5Gc(a2-8)Neu5Gc(a2-3)Gal(b1-4)GlcNAc
# Method in brief: as §1
# [26] = target: Neu5Gc(a2-8)Neu5Gc(a2-3)Gal(b1-4)GlcNAc(b1-3)Gal(b1-4)GlcNAc
# Method in brief: as §1
# [27] = target: Neu5Gc(a2-8)Neu5Gc(a2-6)Gal(b1-4)GlcNAc
# Method in brief: as §1
# [28] = target: Neu5Gc(b2-6)Gal(b1-4)GlcNAc
# Method in brief: as §1
binder,measurement,setting,value
"Erv41-EDTA (Saccharomyces cerevisiae), Q04651 (protein) MKFLVNVALVFMVVYISYIYAAAPEHHHHHHDYDIPTTENLYFQGAMGYIDQQYVVDSQVRDTVQINMDIYVNTKCDWLQINVRDQTMDRKLVLEELQLEEMPFFIPYDTKVNDINEIITPELDEILGEAIPAEFREKLDTRSFFDESDPNKAHLPEFNGCHVFGSIPVNRVSGELQITAKSLGYVASRKAPLEELKFNHVINEFSFGDFYPYIDNPLDNTAQFNQDEPLTTYVYYTSVVPTLFKKLGAEVDTNQYSVNDYRYLYKDVAAKGDKMPGIFFKYNFEPLSIVVSDVRL",glycan array binding signal (z-score),[1],-1.06
same,glycan array binding signal (z-score),Neu5Ac(a2-8)Neu5Ac,0.31
same,glycan array binding signal (z-score),[2],-0.348
same,glycan array binding signal (z-score),[3],0.515
same,glycan array binding signal (z-score),[4],-0.577
same,glycan array binding signal (z-score),[5],-1.13
same,glycan array binding signal (z-score),[6],1.35
same,glycan array binding signal (z-score),[7],0.339
same,glycan array binding signal (z-score),[8],0.616
same,glycan array binding signal (z-score),[9],1.23
same,glycan array binding signal (z-score),[10],0.774
same,glycan array binding signal (z-score),[11],0.261
same,glycan array binding signal (z-score),[12],-0.264
same,glycan array binding signal (z-score),[13],-0.56
same,glycan array binding signal (z-score),[14],-1.02
same,glycan array binding signal (z-score),Neu5Ac(b2-6)GalNAc,0.566
same,glycan array binding signal (z-score),[15],-0.13
same,glycan array binding signal (z-score),[16],-0.38
same,glycan array binding signal (z-score),[17],-0.218
same,glycan array binding signal (z-score),[18],0.539
same,glycan array binding signal (z-score),[19],-0.383
same,glycan array binding signal (z-score),Neu5Gc(a2-3)Gal(b1-4)Glc,-0.149
same,glycan array binding signal (z-score),[20],-0.702
same,glycan array binding signal (z-score),[21],0.937
same,glycan array binding signal (z-score),[22],0.51
same,glycan array binding signal (z-score),[23],-0.134
same,glycan array binding signal (z-score),Neu5Gc(a2-6)GalNAc,-0.257
same,glycan array binding signal (z-score),[24],-0.152
same,glycan array binding signal (z-score),[25],0.393
same,glycan array binding signal (z-score),[26],-1.33
same,glycan array binding signal (z-score),[27],1.14
same,glycan array binding signal (z-score),[28],0.424

# An excerpt of the results above, for reference:
binder,measurement,setting,value
"Erv41-EDTA (Saccharomyces cerevisiae), Q04651 (protein) MKFLVNVALVFMVVYISYIYAAAPEHHHHHHDYDIPTTENLYFQGAMGYIDQQYVVDSQVRDTVQINMDIYVNTKCDWLQINVRDQTMDRKLVLEELQLEEMPFFIPYDTKVNDINEIITPELDEILGEAIPAEFREKLDTRSFFDESDPNKAHLPEFNGCHVFGSIPVNRVSGELQITAKSLGYVASRKAPLEELKFNHVINEFSFGDFYPYIDNPLDNTAQFNQDEPLTTYVYYTSVVPTLFKKLGAEVDTNQYSVNDYRYLYKDVAAKGDKMPGIFFKYNFEPLSIVVSDVRL",glycan array binding signal (z-score),[5],-1.13
same,glycan array binding signal (z-score),[6],1.35
